{"sequences": {"note": "Chains of the proteins cited; added tags and fusions are not shown. Lines headed by an entry give the natural chain unless they say otherwise; changes in a name come on top.", "UniProt Q8IDE6": "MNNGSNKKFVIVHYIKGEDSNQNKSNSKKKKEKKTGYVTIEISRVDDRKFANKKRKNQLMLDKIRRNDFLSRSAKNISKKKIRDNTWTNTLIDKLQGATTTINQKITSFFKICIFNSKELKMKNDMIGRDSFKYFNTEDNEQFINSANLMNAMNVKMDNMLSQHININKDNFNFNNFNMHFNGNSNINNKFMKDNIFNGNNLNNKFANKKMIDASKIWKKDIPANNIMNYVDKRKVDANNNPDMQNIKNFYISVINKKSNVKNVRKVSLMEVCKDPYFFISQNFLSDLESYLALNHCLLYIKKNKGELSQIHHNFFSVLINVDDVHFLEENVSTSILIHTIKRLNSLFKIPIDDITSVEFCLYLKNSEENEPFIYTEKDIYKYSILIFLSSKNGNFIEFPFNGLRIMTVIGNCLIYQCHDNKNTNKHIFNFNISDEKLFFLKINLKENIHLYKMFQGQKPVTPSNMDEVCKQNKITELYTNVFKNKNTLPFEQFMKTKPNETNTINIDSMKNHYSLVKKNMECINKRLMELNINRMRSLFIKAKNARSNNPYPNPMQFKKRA", "UniProt Q8ILF4": "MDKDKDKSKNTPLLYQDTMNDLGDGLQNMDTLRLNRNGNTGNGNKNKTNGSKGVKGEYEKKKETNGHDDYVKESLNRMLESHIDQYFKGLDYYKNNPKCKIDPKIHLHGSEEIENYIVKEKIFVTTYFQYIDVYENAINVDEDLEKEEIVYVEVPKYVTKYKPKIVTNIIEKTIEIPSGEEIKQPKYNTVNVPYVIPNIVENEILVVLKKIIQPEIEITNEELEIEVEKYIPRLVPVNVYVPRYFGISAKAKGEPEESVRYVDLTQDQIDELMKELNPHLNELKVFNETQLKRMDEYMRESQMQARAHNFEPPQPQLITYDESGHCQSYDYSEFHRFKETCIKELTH"}, "source": "paper PMC5646874", "target": "PIP1-HA (HA-glmS fusion of PhIL1 interacting protein-1, PF3D7_1355600) (P. falciparum) (UniProt Q8IDE6)", "assay": "affinity purification with mass spectrometry; extracts of PIP1-HA-glmS parasites solubilised in 1% Triton X-100, anti-HA agarose beads, in-solution tryptic digestion, mass spectrometry; two independent experiments, wild type 3D7 as control", "note": "No constants are given. Whether binding was seen depends on the method and setting. In cells and extracts the contact can be indirect. Here binding means that the protein was enriched with, or labelled near, the bait; the list need not be complete."}
{"substance": "PhIL1 Interacting Protein 2 (PIP2, PF3D7_1431100) (from UniProt Q8ILF4)", "values": [{"measurement": "binding", "result": "binds"}]}
